Assay results as given in patent US20170129926A1 (ABCLON, published 2017).
Read-outs that look alike come from different tables or passages of the source.

The chains behind the UniProt entries cited, without tags or fusion partners. Residues count along the entry.
UniProt P05231, 30-212 limits assumed: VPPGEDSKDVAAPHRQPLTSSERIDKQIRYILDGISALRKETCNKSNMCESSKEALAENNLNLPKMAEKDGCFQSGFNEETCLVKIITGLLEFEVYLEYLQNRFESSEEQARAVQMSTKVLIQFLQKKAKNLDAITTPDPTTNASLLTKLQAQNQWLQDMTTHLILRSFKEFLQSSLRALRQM

Legend:
[1] = molecular target: T1, human IL-6 (human, UniProt P05231 30-212); test: ELISA, captured Z-ABD, biotin-hIL-6 titrated
T1 construct: recombinant, bought (Peprotech 200-06; R&D Systems 206-IL/CF); biotinylated in the ELISAs; also called hIL-6; rhIL-6

[2] = molecular target: T1, human IL-6; test: ELISA, captured Z-ABD, biotin-hIL-6 titrated; remark: listed apart in the source

B1: Z11903 (designed binder)
chain: AQHDEALEVDAKYAKEERAAWYEIHSLPNLTVDQMAAFISKLFDDPSQSSELLSEAKKLNDSQAPKVDYVLAEAKVLANRELDKYGVSDYYKNLINNAKTVEGVKALIDEILAALPYVPG
notes: domain: GA3; periplasmic ABD fusion
[1]
  EC50: 0.23 nM

B2: Z11904 (designed binder)
chain: AQHDEALEVDAKYAKEEQQAWLEIHLLPNLTIEQMAAFISKLFDDPSQSSELLSEAKKLNDSQAPKVDYVLAEAKVLANRELDKYGVSDYYKNLINNAKTVEGVKALIDEILAALPYVPG
notes: as for B1
[1]
  EC50: 0.24 nM

B3: Z11905 (designed binder)
chain: AQHDEALEVDAKYAKEERDAWYEIHLLPNLTVHQIAAFISKLFDDPSQSSELLSEAKKLNDSQAPKVDYVLAEAKVLANRELDKYGVSDYYKNLINNAKTVEGVKALIDEILAALPYVPG
notes: as for B1
[1]
  EC50: 0.31 nM

B4: Z11906 (designed binder)
chain: AQHDEALEVDAKYAKEERDAWYEIHTLPNLTVEQMAAFIWKLFDDPSQSSELLSEAKKLNDSQAPKVDYVLAEAKVLANRELDKYGVSDYYKNLINNAKTVEGVKALIDEILAALPYVPG
notes: as for B1
[1]
  EC50: 0.25 nM

B5: Z11907 (designed binder)
chain: AQHDEALEVDAKYAKEEQHAWLEIHKLPNLTVEQIAAFISKLFDDPSQSSELLSEAKKLNDSQAPKVDYVLAEAKVLANRELDKYGVSDYYKNLINNAKTVEGVKALIDEILAALPYVPG
notes: as for B1
[1]
  EC50: 0.36 nM

B6: Z11912 (designed binder)
chain: AQHDEALEVDAKYAKEEAAAWFEIHTLPNLTVDQMAAFISKLFDDPSQSSELLSEAKKLNDSQAPKVDYVLAEAKVLANRELDKYGVSDYYKNLINNAKTVEGVKALIDEILAALPYVPG
notes: as for B1
[1]
  EC50: 0.18 nM

B7: Z11918 (designed binder)
chain: AQHDEALEVDAKYAKEERDAWFEIHTLPNLTVTQMAAFIIKLFDDPSQSSELLSEAKKLNDSQAPKVDYVLAEAKVLANRELDKYGVSDYYKNLINNAKTVEGVKALIDEILAALPYVPG
notes: as for B1
[1]
  EC50: 0.32 nM

B8: Z11922 (designed binder)
chain: AQHDEALEVDAKYAKEERHAWHEIHILPNLTANQIAAFISKLFDDPSQSSELLSEAKKLNDSQAPKVDYVLAEAKVLANRELDKYGVSDYYKNLINNAKTVEGVKALIDEILAALPYVPG
notes: as for B1
[1]
  EC50: 0.27 nM

B9: Z11923 (designed binder)
chain: AQHDEALEVDAKYAKEEREAWFEIHLLPNLTISQMAAFISKLFDDPSQSSELLSEAKKLNDSQAPKVDYVLAEAKVLANRELDKYGVSDYYKNLINNAKTVEGVKALIDEILAALPYVPG
notes: as for B1
[1]
  EC50: 0.21 nM

B10: Z11929 (designed binder)
chain: AQHDEALEVDAKYAKEEAEAWWEIHLLPNLTVQQIAAFISKLFDDPSQSSELLSEAKKLNDSQAPKVDYVLAEAKVLANRELDKYGVSDYYKNLINNAKTVEGVKALIDEILAALPYVPG
notes: as for B1
[1]
  EC50: 0.26 nM

B11: Z11933 (designed binder)
chain: AQHDEALEVDAKYAKEEAHAWYEIHILPNLTVSQMAAFISKLFDDPSQSSELLSEAKKLNDSQAPKVDYVLAEAKVLANRELDKYGVSDYYKNLINNAKTVEGVKALIDEILAALPYVPG
notes: as for B1
[1]
  EC50: 0.16 nM

B12: Z11937 (designed binder)
chain: AQHDEALEVDAKYAKEERDAWYEIHLLPNLTIDQIAAFISKLFDDPSQSSELLSEAKKLNDSQAPKVDYVLAEAKVLANRELDKYGVSDYYKNLINNAKTVEGVKALIDEILAALPYVPG
notes: as for B1
[1]
  EC50: 0.3 nM

B13: Z11939 (designed binder)
chain: AQHDEALEVDAKYAKEEQRAWREIHLLPNLTIEQMSAFISKLFDDPSQSSELLSEAKKLNDSQAPKVDYVLAEAKVLANRELDKYGVSDYYKNLINNAKTVEGVKALIDEILAALPYVPG
notes: as for B1
[1]
  EC50: 0.21 nM

B14: Z14521 (designed binder)
chain: AQHDEALEVDAKYAKEEYDAWMEIHLLPNLTVDQMAAFITKLFDDPSQSSELLSEAKKLNDSQAPKVDYVLAEAKVLANRELDKYGVSDYYKNLINNAKTVEGVKALIDEILAALPYVPG
notes: as for B1
[2]
  EC50: 0.23 nM

B15: Z14524 (designed binder)
chain: AQHDEALEVDAKYAKEEKHAWREIHLLPNLTVEQMAAFITKLFDDPSQSSELLSEAKKLNDSQAPKVDYVLAEAKVLANRELDKYGVSDYYKNLINNAKTVEGVKALIDEILAALPYVPG
notes: as for B1
[2]
  EC50: 0.27 nM

B16: Z14525 (designed binder)
chain: AQHDEALEVDAKYAKEEKKAWTEIHLLPNLTIEQMAAFITKLFDDPSQSSELLSEAKKLNDSQAPKVDYVLAEAKVLANRELDKYGVSDYYKNLINNAKTVEGVKALIDEILAALPYVPG
notes: as for B1
[2]
  EC50: 0.25 nM

B17: Z14538 (designed binder)
chain: AQHDEALEVDAKYAKEERFAWTEIHLLPNLTVDQMAAFITKLFDDPSQSSELLSEAKKLNDSQAPKVDYVLAEAKVLANRELDKYGVSDYYKNLINNAKTVEGVKALIDEILAALPYVPG
notes: as for B1
[2]
  EC50: 0.32 nM

B18: Z14547 (designed binder)
chain: AQHDEALEVDAKYAKEERHAWTEIHLLPNLTIDQMAAFITKLFDDPSQSSELLSEAKKLNDSQAPKVDYVLAEAKVLANRELDKYGVSDYYKNLINNAKTVEGVKALIDEILAALPYVPG
notes: as for B1
[2]
  EC50: 0.25 nM

B19: Z14550 (designed binder)
chain: AQHDEALEVDAKYAKEERAAWFEIHALPNLTVEQVAAFITKLFDDPSQSSELLSEAKKLNDSQAPKVDYVLAEAKVLANRELDKYGVSDYYKNLINNAKTVEGVKALIDEILAALPYVPG
notes: as for B1
[2]
  EC50: 0.27 nM

B20: Z14551 (designed binder)
chain: AQHDEALEVDAKYAKEEKQAWYEIHNLPNLTVDQMAAFISKLFDDPSQSSELLSEAKKLNDSQAPKVDYVLAEAKVLANRELDKYGVSDYYKNLINNAKTVEGVKALIDEILAALPYVPG
notes: as for B1
[2]
  EC50: 0.26 nM

B21: Z14556 (designed binder)
chain: AQHDEALEVDAKYAKEEAQAWWEIHALPNLTVDQVAAFITKLFDDPSQSSELLSEAKKLNDSQAPKVDYVLAEAKVLANRELDKYGVSDYYKNLINNAKTVEGVKALIDEILAALPYVPG
notes: as for B1
[2]
  EC50: 0.28 nM

B22: Z14559 (designed binder)
chain: AQHDEALEVDAKYAKEEYEAWYEIHILPNLTVDQIAAFITKLFDDPSQSSELLSEAKKLNDSQAPKVDYVLAEAKVLANRELDKYGVSDYYKNLINNAKTVEGVKALIDEILAALPYVPG
notes: as for B1
[2]
  EC50: 0.23 nM

B23: Z14596 (designed binder)
chain: AQHDEALEVDAKYAKEEYEAWHEIHILPNLTVDQMAAFITKLFDDPSQSSELLSEAKKLNDSQAPKVDYVLAEAKVLANRELDKYGVSDYYKNLINNAKTVEGVKALIDEILAALPYVPG
notes: as for B1
[2]
  EC50: 0.24 nM

B24: Z14609 (designed binder)
chain: AQHDEALEVDAKYAKEERMAWMEIHLLPNLTVEQMAAFISKLFDDPSQSSELLSEAKKLNDSQAPKVDYVLAEAKVLANRELDKYGVSDYYKNLINNAKTVEGVKALIDEILAALPYVPG
notes: as for B1
[2]
  EC50: 0.3 nM

B25: Z14614 (designed binder)
chain: AQHDEALEVDAKYAKEEYDAWVEIHALPNLTVEQVAAFITKLFDDPSQSSELLSEAKKLNDSQAPKVDYVLAEAKVLANRELDKYGVSDYYKNLINNAKTVEGVKALIDEILAALPYVPG
notes: as for B1
[2]
  EC50: 0.38 nM
